Laboratory results as given in PubChem BioAssay AID2685 (National Center for Advancing Translational Sciences (NCATS), 2010).
Among all 320,000 compounds or so, about 2,100 (0.66%) were called active. Inconclusive means that the source gave no clear call. Such entries were picked first, then a sample of the others. The call rests on the fitted dose curve; in most records, active means well fitted inhibition curve with a large enough effect in the signal ratio, with a control signal flat (not every such curve was filed as active); inconclusive means small, poorly fitted or top-dose-only effect, or effect the other way, or a change in a side signal; inactive means flat fitted curve, though single readings scatter; the % refers to the signal ratio. Potencies beside an inconclusive call are fits to weak or partial responses and may not hold up.
On the % scale 0 is the no-effect control and ±100 the full control effect; potency means the concentration at half of the fitted maximal effect.

Test: qHTS Assay for Lipid Storage Modulators in Drosophila S3 Cells
Details: BODIPY lipid droplet fluorescence, 18-24 h, cells fed with added oleic acid; lipid storage change, negative = inhibition: at 46.1 µM (top of the series) unless noted
How it was run: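 Drosophila S3 cells loaded with oleic acid (400 uM, as added) and compounds at several concentrations; lipid droplets imaged by 488-nm laser-scanning cytometry, 500–530 nm intensity and object ratio to cell channel. Percent activity normalized to 20 uM Triacsin C.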
With `CCOC(=O)c1sc(-c2ccccc2)cc1NC(=O)CSc1nnnn1C` the Potency was inconclusive: 0.231 µM [activator, full curve].
With `Nc1nnc(CCCCc2cccs2)o1` the Potency was inconclusive: 29.1 µM [falling, single point].
For `CC1Cc2ccccc2C(=O)N1` (stereo not drawn), the lipid storage change, negative = inhibition was inconclusive: -23.7%.
For `CCNS(=O)(=O)c1ccc(C(=O)OCc2cc(=O)oc3cc(OC)ccc23)cc1`, the “outcome” value was “inactive [at 46.1 µM]”.
In the case of `COC(=O)C(NC(=O)CCC(=O)N[C@@H](C(=O)OC)c1ccccc1)c1ccccc1` (stereo partly drawn), the Potency is reported as inconclusive: 8.2 µM [activator, partial curve].
With `COc1cc(SC)ccc1C(=O)NNC(=O)c1cc(C)oc1C` the lipid storage change, negative = inhibition was “inconclusive”.
In the case of `COc1ccc(NC(=O)c2ccc(=O)[nH]c2)cc1S(=O)(=O)N1CCCCC1`, the lipid storage change, negative = inhibition is reported as inconclusive: 31.8%.
In the case of `c1coc(-c2ccnc(-n3cccc3)n2)c1`, the Potency is reported as inconclusive: 1.64 µM [activator, partial curve, poor fit].
With `OC(COc1cccc2ccccc12)CN1CCN(c2ccccn2)CC1` (stereo not drawn) the lipid storage change, negative = inhibition was inconclusive: -12%.
With `COc1ccc(OC2C(=O)N(c3cc(C)ccc3C)C2c2ccc(OC)c(OC)c2)cc1` (stereo not drawn) the lipid storage change, negative = inhibition was inconclusive: -38.9%.
In the case of `CC(=O)c1sc(NC(=O)CCN2C(=O)C3CC=CCC3C2=O)nc1-c1ccccc1` (stereo not drawn), the lipid storage change, negative = inhibition is reported as inconclusive: -0.942%.
With `CCc1nc(SCc2ccc(OC)c(Br)c2)n[nH]1` the lipid storage change, negative = inhibition was inconclusive: 19.3%.
In the case of `COc1ccc(OC)c(S(=O)(=O)N2CCCC(C(=O)N3CCC(C(N)=O)CC3)C2)c1` (stereo not drawn), the “lipid storage change, negative = inhibition” value is reported as inactive: 29.6%.
With `Cc1nn(C)c(C)c1S(=O)(=O)N(CC(=O)NC1CCCCCC1)c1ccc(C(C)C)cc1` the lipid storage change, negative = inhibition was inconclusive: 78.9%.
With `CCOc1c(Nc2ccccc2O)c(=O)c1=O` the lipid storage change, negative = inhibition was inconclusive: 9.26%.
For `COc1ccc(NC2CC(=O)N(c3cccc(C)c3)C2=O)cc1` (stereo not drawn), the “lipid storage change, negative = inhibition” value was inactive: 11.1%.
For `COc1ccc(/C=C/C(=O)O)cc1S(=O)(=O)Nc1ccc2c(c1)OCO2`, the lipid storage change, negative = inhibition was inconclusive: -2.4%.
With `CC1=C(C(=O)OC(C)C)C(C)NC(=O)N1` (stereo not drawn) the Potency was inconclusive: 29.1 µM [falling, single point].
With `COc1cc2c(cc1OC)C1O[C@](CCCCN3C(=O)c4ccccc4C3=O)(C2)Oc2c1c(=O)oc1ccc(F)cc21` the lipid storage change, negative = inhibition was inactive: 16.8% [at 9.22 µM].
With `O=C(O)c1cc(S(=O)(=O)N2CCOCC2)ccc1N1CCOCC1` the Potency was inconclusive: 29.1 µM [falling, single point].
In the case of `NCc1ccc(-c2nc3ccccc3o2)cc1`, the lipid storage change, negative = inhibition is reported as inconclusive: -12.4%.
In the case of `O=C(COc1ccc(Cl)cc1Cl)NCCC1=CCCCC1`, the lipid storage change, negative = inhibition is reported as inconclusive: 17.2%.
With `CCOc1ccc2nc(SCC(=O)c3ccc(C)s3)sc2c1` the lipid storage change, negative = inhibition was inconclusive: 70.7%.
For `Cc1cc(C)cc(NC(=S)N2CCC(NC(=O)c3ccc(F)cc3)CC2)c1`, the lipid storage change, negative = inhibition was inconclusive: 317%.
With `COc1ccc(CN(C)CC(=O)NC(=O)NCc2ccccc2)cc1OC` the Potency was inconclusive: 5.8 µM [activator, partial curve, poor fit].
In the case of `O=C(CCN1C(=O)/C(=C/c2ccc3c(c2)OCO3)SC1=S)Nc1cccc(C(=O)O)c1`, the Potency is reported as inconclusive: 29.1 µM [activator, single point].
In the case of `CCCCCCn1c2c(c(=N)c3c1CCC3)CCC2`, the lipid storage change, negative = inhibition is reported as inconclusive: -148%.
For `Cc1ccc(C2=NOC3(CC(=O)N(c4ccccc4)C3=O)C2)cc1` (stereo not drawn), the lipid storage change, negative = inhibition was inconclusive: 11.6%.
For `COCCNC(=S)NC1CC2CCC(C1)N2Cc1ccccc1` (stereo not drawn), the lipid storage change, negative = inhibition was inconclusive: 12.4%.
For `COc1ccc(/C(C)=N/NC(=O)c2nnn(-c3nonc3N)c2-c2cccs2)cc1`, the Potency was inconclusive: 29.1 µM [activator, single point].
In the case of `Cc1ccc(S(=O)(=O)NCC(=O)N(CC(=O)NC(C)(C)C)Cc2cccs2)cc1`, the Potency is reported as inconclusive: 0.58 µM [falling, single point].
For `CC(=O)Nc1ccc(-n2nnnc2SCC(=O)Nc2cccc(NC(=O)c3ccco3)c2)cc1`, the lipid storage change, negative = inhibition was inconclusive: 23.6%.
In the case of `Cc1c(C(=O)O)oc2ccc(S(=O)(=O)NC3CCCCCCC3)cc12`, the lipid storage change, negative = inhibition is reported as inconclusive: 7.97%.
For `CCOc1ncccc1C(=O)OCC(=O)Nc1ccc(S(=O)(=O)N2CCCC2)cc1`, the lipid storage change, negative = inhibition was inconclusive: -33.1%.
With `Cn1cc(C(=O)N/N=C/C2=C(N3CCOCC3)C(=C\c3ccccc3)/CC2)ccc1=O` the Potency was inconclusive: 18.4 µM [activator, single point].
With `O=C(COC(=O)[C@H](Cc1c[nH]c2ccccc12)NC(=O)c1ccc(Cl)cc1)Nc1ccc2c(c1)OCO2` the Potency was inconclusive: 16.4 µM [activator, partial curve].
For `COc1ccc(OC)c(/C=C/C(=O)N2C(=O)c3cccc(N)c3C2=O)c1`, the Potency was active: 16.4 µM.
For `CC(=O)c1ccc(S(=O)(=O)N(C)CC(=O)Nc2ccc(C)cc2)cc1`, the Potency was inconclusive: 1.84 µM [activator, full curve, poor fit].
With `O=C1C2CC=C(Cl)CC2C(=O)N1CCC[n+]1cccc2ccccc21` (stereo not drawn) the “lipid storage change, negative = inhibition” value was inactive: 16.7%.
For `CN(C)S(=O)(=O)Oc1cccc(C(=O)Nc2ccc(Cl)c(Cl)c2)c1`, the lipid storage change, negative = inhibition was inconclusive: -27.4%.
With `O=C1C(=Cc2cccs2)C(=O)c2ccccc21` the Potency was active: 18.4 µM.
For `Cc1cc(C)c(O)c(-c2cc(C(=O)NCc3ccccc3)[nH]n2)c1`, the Potency was inconclusive: 0.0046 µM [falling, full curve, poor fit].
With `CCOc1ccc(N2CC(C(=O)NNC(=O)c3ccc(Br)cc3)CC2=O)cc1` (stereo not drawn) the lipid storage change, negative = inhibition was inconclusive: 21.2%.
In the case of `Cc1cc(Cl)ccc1NC(=S)N1CCOCC1`, the lipid storage change, negative = inhibition is reported as inconclusive: -13.7%.
For `CC(=O)NC(CC(=O)Nc1ccc(S(=O)(=O)NC2=NCCCCC2)cc1)c1ccccc1` (stereo not drawn), the Potency was inconclusive: 32.6 µM [activator, partial curve, poor fit].
In the case of `Cc1cccc(Nc2nc(NCC3CCCO3)nc(N)c2[N+](=O)[O-])c1` (stereo not drawn), the Potency is reported as inconclusive: 0.206 µM [activator, full curve, poor fit].
With `Cc1cc(OCc2cc(C(=O)N(C)CC3CCOCC3)no2)cc(C)c1Cl` the Potency was inconclusive: 29.1 µM [cytotoxic, single point].
For `Cc1ccc(C(=O)N2CCN(CCNC(=O)C(=O)NCc3ccc(Cl)cc3)CC2)cc1`, the lipid storage change, negative = inhibition was inconclusive: -17.4%.
